Source: ChEMBL document CHEMBL3988442, “University of Dundee, Small-Polar-MMV Screening Library” (2021).

Mtb growth Cornell: 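Whole-cell assay for inhibitors of Mycobacterium tuberculosis growth, labelled Cornell in the record; the read-out is not stated. The concentration is filed as 10 mM, unlikely as a test dose, so the dose is not known. The record gives no direction; compounds strong in two other growth screens of this library score well above the rest, so higher reads as stronger inhibition. About 53,000 compounds were tested under these conditions; 1.7% (about 900) showed 50% or more at least once.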
Mtb heat-shock: 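Assay on Mycobacterium tuberculosis, filed only as a heat shock assay from Cornell; the read-out is not stated. The concentration is filed as 10 mM, unlikely as a test dose, so the dose is not known. Direction is inferred from retests: higher values go with stronger inhibition. About 69,000 compounds were tested under these conditions; 1.4% (about 930) showed 50% or more at least once.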

The filed quantity is “Percent Effect” (%).
The record does not define 0% and 100%; most values in the screen are far below 50% and negative numbers occur (in some assays of this library far below -100).
Compounds were drawn at random from those tested, without regard to their results.

- Cc1cc(C(=O)N2CCN(C(=O)Cc3ccccn3)CC2)c(C)s1 : Mtb heat-shock: 4.194%
- CCCS(=O)(=O)NC(=O)c1ccc(CC)o1 : Mtb growth Cornell: 22.46%; Mtb heat-shock: 17.98%
- CCCOC(C)C(=O)NCc1cc2n(n1)CCCN(C1CCCCC1)C2 (stereo not drawn) : Mtb growth Cornell: 36.28%; Mtb heat-shock: 26.41%
- O=C1OCCN1CCS(=O)(=O)c1cccc(Cl)c1 : Mtb growth Cornell: 8.667%; Mtb heat-shock: 19.88%
- CCCN(CC)c1cc(C2CCNCC2)nc(C)n1 : Mtb growth Cornell: -10.59%; Mtb heat-shock: -15.84%
- O=c1ccc(-n2ccnc2)nn1CCNS(=O)(=O)c1ccc(F)c(Cl)c1 : Mtb growth Cornell: 29.01%; Mtb heat-shock: -7.879%
- CCN1CCN(C2CCN(Cc3noc(C)n3)CC2)C1=O : Mtb growth Cornell: 14.62%; Mtb heat-shock: 25.59%
- Cc1cc(C(=O)N2CCC(c3nccn3CCCN(C)C)CC2)no1 : Mtb growth Cornell: -2.368%; Mtb heat-shock: 0%
- CCCC(=O)N1CCCN(C(=O)c2oc(C)nc2C)CC1 : Mtb growth Cornell: 15.64%; Mtb heat-shock: 0.2031%
- COCCC(=O)Nc1nccn1Cc1ccc(Br)cc1 : Mtb growth Cornell: 27.83%; Mtb heat-shock: 102.5%
- CN1[C@@H](c2ccccc2)[C@@H](C(=O)NCC2CCOCC2)C[C@@]1(C)C(=O)O : Mtb growth Cornell: 2.452%; Mtb heat-shock: 12.62%
- O=C(O)C(F)(F)F.[H][C@@]12CCCO[C@]1([H])[C@H](NC(=O)c1nccn1C)CN2Cc1cccs1 : Mtb growth Cornell: 9.064%; Mtb heat-shock: -36.92%
- O=C(O)C(F)(F)F.[H][C@@]12CCCO[C@]1([H])[C@@H](OCC(=O)N(C)C)CN2Cc1cccc(F)c1 : Mtb growth Cornell: 32.05%; Mtb heat-shock: -4.415%
- Cc1ncc(-c2ccnc(SCCN(C)C)n2)c(-c2ccco2)n1 : Mtb growth Cornell: -43.04%; Mtb heat-shock: -34.5%
- Cc1nn(C)c(C)c1-c1cnc(C2CCCN(C)C2)cn1 (stereo not drawn) : Mtb growth Cornell: -0.4422%; Mtb heat-shock: -5.069%
- Cc1cccc(SC2CCN(C(=O)CCCn3cnnn3)CC2)c1 : Mtb growth Cornell: 50.26%; Mtb heat-shock: 2.039%
- O=C(CCc1cc2n(n1)CCCN(C(=O)c1ccccn1)C2)NC1CC1 : Mtb growth Cornell: -24.58%; Mtb heat-shock: 6.693%
- CC(C)Cc1cc(CNC(=O)C2CCCN(C(=O)N(C)C)C2)no1 (stereo not drawn) : Mtb growth Cornell: 15.99%; Mtb heat-shock: 21.44%
- Cc1ccc(OCCN2CCN(Cc3cnn(CCO)c3)CC2)cc1 : Mtb heat-shock: 8.005%
- Cn1ccnc1C1CCCN(C(=O)c2cc(F)cc(F)c2)C1 (stereo not drawn) : Mtb growth Cornell: 6.758%; Mtb heat-shock: -9.25%
- c1ccc(CN2CCC(Cc3noc(C4CC4)n3)CC2)cc1 : Mtb growth Cornell: 11.67%; Mtb heat-shock: -23.45%
- O=C(CC1CC2(CCNCC2)c2ccccc21)NCC1CC1 (stereo not drawn) : Mtb growth Cornell: -16.98%; Mtb heat-shock: 43.24%
- COCC1CN(CC2CC2)Cc2nn(CC3CC3)cc21.O=C(O)C(F)(F)F (stereo not drawn) : Mtb growth Cornell: -23.81%; Mtb heat-shock: -19.88%
- CC(C)CN1CCN(C(=O)c2cc(=O)c3ccccc3[nH]2)CC1 : Mtb growth Cornell: -23.41%; Mtb heat-shock: 5.811%
- COCCN1CCC(CNC(=O)Nc2ccc(SC(F)(F)F)cc2)C1 (stereo not drawn) : Mtb growth Cornell: 15.48%; Mtb heat-shock: -13.16%
- CC(COc1ccccc1F)NC(=O)N[C@@H]1C=C[C@H](CO)C1 (stereo partly drawn) : Mtb growth Cornell: 22.85%; Mtb heat-shock: 5.24%
- CC(Cn1cc(Cl)cn1)C(=O)Nc1ccc(CN2CCCCCC2)cc1 (stereo not drawn) : Mtb growth Cornell: -18.96%; Mtb heat-shock: -4.766%
- Cc1ccc(Sc2nccn(C)c2=O)cc1 : Mtb heat-shock: 12.24%
- COCCNC(=O)c1cc(S(=O)(=O)N2CCCCCC2)cs1 : Mtb growth Cornell: -32.56%; Mtb heat-shock: 44.37%
- CN1N=C(c2nc(Cc3cccc(Br)c3)no2)CCC1=O : Mtb growth Cornell: 31.29%; Mtb heat-shock: -19.79%
- O=C(O)C(F)(F)F.O=C(O)C(F)(F)F.O=C(O)C(F)(F)F.c1ccc(CO[C@H]2CO[C@@]3(CCCN(Cc4cccnc4)C3)C2)nc1 : Mtb growth Cornell: 25.2%; Mtb heat-shock: -36.36%
- CNC(=O)C1(CCCc2ccccn2)CCN1Cc1coc(C)n1 (stereo not drawn) : Mtb growth Cornell: -19.24%; Mtb heat-shock: 2.54%
- O=C(CN1CCCC(c2ncc[nH]2)C1)NCCCN1CCCCCC1=O (stereo not drawn) : Mtb heat-shock: 4.838%
- Cn1ccc(C(=O)NCc2ccc(CN3CCCCC3)cc2)cc1=O : Mtb heat-shock: -5.512%

For reference, 3 entries once more:

{"compound": "O=C(CN1CCCC(c2ncc[nH]2)C1)NCCCN1CCCCCC1=O", "stereo": "stereo not drawn", "Mtb heat-shock": 4.838}
{"compound": "Cc1cc(C(=O)N2CCC(c3nccn3CCCN(C)C)CC2)no1", "Mtb growth Cornell": -2.368, "Mtb heat-shock": 0}
{"compound": "O=C(O)C(F)(F)F.[H][C@@]12CCCO[C@]1([H])[C@H](NC(=O)c1nccn1C)CN2Cc1cccs1", "Mtb growth Cornell": 9.064, "Mtb heat-shock": -36.92}